The nature of the assay: qHTS Assay for Lipid Storage Modulators in Drosophila S3 Cells.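 On cell number change: cells counted by Cell Tracker Red CMTPX staining in the red channel.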 The settings on record: BODIPY lipid droplet fluorescence, 18-24 h; for cell number change: measured here: cell count max response, cells fed with added oleic acid. In a few lines: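 Drosophila S3 cells got compounds at several concentrations plus oleic acid (400 uM solution). Laser-scanning cytometry with 488 nm excitation read lipid droplets at 500-530 nm and cells at 575-640 nm. Percent activity was relative to 20 uM Triacsin C.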
For orientation: In qHTS, concentration-response curves come from the screen itself.

The mark [1] stands for this setting: measured here: lipid fluorescence (Fed channel) AC50, cells fed with added oleic acid.
Setting [2] is: measured here: cell number channel AC50, cells fed with added oleic acid.

Structures are written as SMILES. Some of the results follow. These are further read-outs of the screen, such as a control signal, another cell line or another target. No call is given for them. The list favours compounds with an active or inconclusive main result. Potencies come from curve fits of mixed quality, noted in brackets.

As a reminder, the AC50 is the midpoint of the concentration-response curve, whichever way the signal moves. The low end stands for greater potency, the high end for weaker potency. As for `CC(C)c1nnc2c(N(C)S(=O)(=O)c3ccccc3)nc3ccccc3n12`, the cell number change stood at 24%. Also, the AC50 under setting [1] was 13 µM [falling, partial curve]. On to `CCOc1ccc(S(=O)(=O)N2CCC(C(=O)NCc3ccco3)CC2)cc1`, for which the cell number change amounted to 18.5%. The half-maximal activity concentration (AC50) under setting [1] is 29.1 µM [rising, single point]. For `Cc1cc(/C=C2\NC(=O)N(Cc3ccc(Cl)cc3)C2=O)c(C)n1C`, the cell number change was -1.09%.

For `CCc1ccccc1NC(=O)CN(c1ccc(OC)cc1OC)S(=O)(=O)c1ccccc1`, the AC50 under setting [1] is 20.6 µM [falling, single point]. As for `NNCCc1ccccc1`, the cell number change was 4.15%. Moreover, the concentration at half-maximal activity (AC50) under setting [1] was 8.2 µM [rising, partial curve, poor fit]. Regarding `COc1cccc(C(=O)O[C@H]2[C@H](C)NS(=O)(=O)[C@H]3C[C@@H]4C=C[C@]23O4)c1`, the cell number change was -20.2%. In addition, the AC50 under setting [2] was 0.82 µM [rising, single point]. In the case of `COc1cc(C(=O)NCC2(c3ccccc3)CCCC2)cc(OC)c1OC`, the cell number change is -28%. Under setting [1], the half-maximal activity concentration (AC50) was 29.1 µM [falling, single point].

`O=C(C1CCCC1)N1CCCC(Nc2ccccc2)C1` (centres undefined): the cell number change amounted to 5.28%. Also, the AC50 under setting [1] was 6.51 µM [rising, full curve, poor fit]. On to `CCOC(=O)c1ccccc1NC(=O)Cc1sc(-c2cccnc2)nc1-c1ccc(C)cc1`, for which the cell number change worked out at 20.4%. In addition, the concentration at half-maximal activity (AC50) under setting [1] is 1.84 µM [rising, partial curve, poor fit].

Consider `CCCCc1nc2n[nH]c(N)c2c2c1CCC2`, for which the cell number change amounted to 35.9%. In addition, the AC50 under setting [2] is 3.26 µM [rising, full curve]. As to `O=C(CCC1N=C2c3ccccc3N=C(SCc3cccc(Cl)c3)N2C1=O)NCc1ccco1` (centres undefined), the cell number change was -20.4%. For the same molecule, under setting [1], the half-maximal activity concentration (AC50) was 29.1 µM [falling, single point]. As for `COc1ccc(-n2nc(C(=O)NCC(=O)Nc3cc(OC)c(OC)c(OC)c3)c3ccccc3c2=O)cc1Cl`, the cell number change worked out at 142%. Besides, the AC50 under setting [2] is 20.6 µM [rising, partial curve].

Consider `CCOc1ccccc1NC(=O)/C(C#N)=C/c1cccnc1`, for which the cell number change is -9.9%. The concentration at half-maximal activity (AC50) under setting [1] is 0.58 µM [rising, single point]. Take `O=C(CSc1nc2c(c(C(F)(F)F)n1)CCc1ccccc1-2)NCc1ccco1`: the cell number change came out at 27.3%. For the same molecule, under setting [2], the AC50 is 3.26 µM [rising, full curve, poor fit]. Besides, the concentration at half-maximal activity (AC50) under setting [1] was 0.082 µM [rising, single point]. In the case of `CC1CC(=O)N(c2ccc(N(C)Cc3ccccc3)c([N+](=O)[O-])c2)C1=O` (centres undefined), the cell number change was -49.3%. The AC50 under setting [2] was 29.1 µM [falling, single point]. In addition, under setting [1], the half-maximal activity concentration (AC50) was 2.06 µM [falling, partial curve]. For the molecule `O=C1Cc2cc(NS(=O)(=O)c3ccc(F)cc3)cc3c2N1CCC3`, the AC50 under setting [1] was 0.116 µM [rising, full curve, poor fit]. Take `CCOC(=O)N1CCN(C(=O)C(=O)Nc2sc3c(c2C(=O)O)CC(C)(C)OC3)CC1`: the cell number change was -14.3%. Further, under setting [1], the AC50 is 1.84 µM [rising, partial curve, poor fit]. Regarding `Fc1ccc(CN2C3=NCCCN3c3ccccc32)cc1`, the AC50 is, setting by setting: under setting [2], 0.00517 µM [rising, full curve, poor fit]; under setting [1], 0.082 µM [rising, full curve, poor fit]. `COc1ccc(CC(=O)N2CCN(S(=O)(=O)c3cc(Cl)ccc3Cl)CC2)cc1`: the cell number change is -0.251%. In addition, under setting [1], the AC50 is 0.103 µM [rising, partial curve, poor fit].

With `Cc1ccc(-c2nc3ncccc3o2)cc1NC(=S)NC(=O)c1ccco1`, the cell number change worked out at 21.2%. Take `Cn1c(N)c(S(=O)(=O)NCc2ccc(Cl)cc2)c(=O)n(C)c1=O`: the half-maximal activity concentration (AC50) reads like this: under setting [2], 7.31 µM [falling, partial curve, poor fit]; under setting [1], 0.103 µM [falling, full curve, poor fit]. For the molecule `COc1cc(C(=O)Nc2nc3ccc(S(=O)(=O)N4CCOCC4)cc3s2)cc(OC)c1OC`, the half-maximal activity concentration (AC50) under setting [1] is 6.51 µM [falling, single point]. On to `CCNC(=O)n1cc(-n2cncn2)c(-c2ccccc2)n1`, for which the cell number change was -20%. In addition, the AC50 under setting [2] is 6.51 µM [falling, single point]. Moreover, the half-maximal activity concentration (AC50) under setting [1] was 6.51 µM [falling, single point].

As for `COc1ccc(NC(=O)C/C(C)=N/NC(=O)c2ccco2)c([N+](=O)[O-])c1`, the cell number change was 16.2%. For `Cc1cccc(C)c1NC(=O)CN(C)CC(=O)Nc1ccccc1Oc1ccccc1`, the cell number change was 6.84%. Consider `NC(=O)c1ccccc1NC(=O)CCc1ccccc1`, for which the cell number change was 10.2%. Also, the AC50 under setting [2] is 0.291 µM [rising, full curve, poor fit]. As to `COc1ccccc1CNC(=O)CSc1ncc(C(=O)Nc2ccccc2)c(=O)n1C`, the cell number change was 9%. In the case of `CCN(CC(=O)Nc1ccc(OC)cc1)C(=O)c1cc([N+](=O)[O-])ccc1N1CCOCC1`, the cell number change is 38.7%. Also, the concentration at half-maximal activity (AC50) under setting [2] is 10.3 µM [rising, partial curve, poor fit].

With `O=C(Nc1nccs1)C1CCN(S(=O)(=O)c2ccc3c(c2)OCCCO3)CC1`, the cell number change turned out to be 91.3%. The AC50 under setting [2] was 5.8 µM [rising, full curve]. As to `CN1CCN(CC(=O)N2CCn3c4c(c5cc(C6CCCCC6)ccc53)CCCC42)CC1` (centres undefined), the cell number change is -44.1%. The AC50 under setting [2] is 32.6 µM [falling, single point]. In addition, the concentration at half-maximal activity (AC50) under setting [1] is 0.00461 µM [falling, full curve, poor fit]. Take `COc1cccc(OC)c1C(=O)Nc1c(C(=O)N2CCN(c3ccccn3)CC2)oc2ccccc12`: the cell number change was -8.22%. In addition, under setting [1], the AC50 is 0.58 µM [rising, single point].

Consider `Cc1ccc(C(C)C)c(OCC(=O)NNC2=CC(=O)CC(C)(C)C2)c1`, for which the cell number change was -3.63%. Consider `CCC(=O)c1ccc(OCC(O)CN(CCc2ccccc2)Cc2ccccc2)cc1` (centres undefined), for which the cell number change was -14.9%. Moreover, under setting [1], the concentration at half-maximal activity (AC50) was 1.46 µM [falling, partial curve]. Take `CCCn1c(SCC(=O)N(C2CCCCC2)C2CCS(=O)(=O)C2)n[nH]c1=O` (centres undefined): the cell number change was -15.5%. The concentration at half-maximal activity (AC50) under setting [2] was 5.8 µM [falling, partial curve, poor fit]. The AC50 under setting [1] was 0.13 µM [falling, full curve, poor fit].

On to `Cc1ccc(NC(=O)CCNS(=O)(=O)c2cccs2)cc1F`, for which the AC50 under setting [1] was 6.51 µM [falling, partial curve, poor fit]. `Cn1cnnc1SCC(=O)Nc1c(F)cc(F)cc1Br`: the cell number change was -14.6%. The AC50 under setting [2] was 0.92 µM [falling, full curve, poor fit]. As for `O=C(NCc1ccccc1Cl)C1CCC(=O)N1Cc1ccc(F)cc1` (centres undefined), the cell number change is 11.3%. In addition, the AC50 under setting [2] is 0.82 µM [rising, single point].
